# Results are given in words; binding and its absence hold for the method and conditions named. In cells and extracts the contact can be indirect. Some binding calls cover weakened binding; strength is not graded here.
# By UniProt entry, the sequences of proteins in these tests, tags left out. Residues count along the entry.
# UniProt P16066, residues 33-1061: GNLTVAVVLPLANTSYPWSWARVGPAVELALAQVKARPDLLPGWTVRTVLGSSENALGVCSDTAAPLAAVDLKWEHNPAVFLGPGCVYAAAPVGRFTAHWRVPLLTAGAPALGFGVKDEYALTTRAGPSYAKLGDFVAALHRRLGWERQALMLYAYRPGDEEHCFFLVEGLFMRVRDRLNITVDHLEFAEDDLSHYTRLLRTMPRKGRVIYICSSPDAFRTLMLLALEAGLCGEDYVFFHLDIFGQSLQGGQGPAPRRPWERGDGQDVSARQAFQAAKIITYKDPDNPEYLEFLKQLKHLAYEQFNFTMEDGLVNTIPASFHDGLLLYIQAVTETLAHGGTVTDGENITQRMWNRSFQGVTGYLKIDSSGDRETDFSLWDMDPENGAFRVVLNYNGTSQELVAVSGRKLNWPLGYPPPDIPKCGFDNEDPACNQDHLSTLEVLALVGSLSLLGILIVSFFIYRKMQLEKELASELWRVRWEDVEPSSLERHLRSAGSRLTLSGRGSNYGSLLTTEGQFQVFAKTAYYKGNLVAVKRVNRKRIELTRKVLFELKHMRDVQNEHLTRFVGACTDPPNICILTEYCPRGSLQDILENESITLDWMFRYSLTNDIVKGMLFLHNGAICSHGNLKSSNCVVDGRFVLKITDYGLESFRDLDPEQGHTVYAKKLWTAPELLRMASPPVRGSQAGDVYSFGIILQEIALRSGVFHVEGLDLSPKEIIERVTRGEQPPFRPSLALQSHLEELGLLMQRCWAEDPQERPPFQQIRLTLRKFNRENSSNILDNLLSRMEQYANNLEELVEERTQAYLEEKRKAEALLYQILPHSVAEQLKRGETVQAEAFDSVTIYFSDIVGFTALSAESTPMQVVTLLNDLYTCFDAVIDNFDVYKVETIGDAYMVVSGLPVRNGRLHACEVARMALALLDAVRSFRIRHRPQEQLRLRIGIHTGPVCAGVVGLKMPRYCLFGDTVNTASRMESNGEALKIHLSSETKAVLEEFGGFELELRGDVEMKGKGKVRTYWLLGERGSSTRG
# UniProt Q8N884: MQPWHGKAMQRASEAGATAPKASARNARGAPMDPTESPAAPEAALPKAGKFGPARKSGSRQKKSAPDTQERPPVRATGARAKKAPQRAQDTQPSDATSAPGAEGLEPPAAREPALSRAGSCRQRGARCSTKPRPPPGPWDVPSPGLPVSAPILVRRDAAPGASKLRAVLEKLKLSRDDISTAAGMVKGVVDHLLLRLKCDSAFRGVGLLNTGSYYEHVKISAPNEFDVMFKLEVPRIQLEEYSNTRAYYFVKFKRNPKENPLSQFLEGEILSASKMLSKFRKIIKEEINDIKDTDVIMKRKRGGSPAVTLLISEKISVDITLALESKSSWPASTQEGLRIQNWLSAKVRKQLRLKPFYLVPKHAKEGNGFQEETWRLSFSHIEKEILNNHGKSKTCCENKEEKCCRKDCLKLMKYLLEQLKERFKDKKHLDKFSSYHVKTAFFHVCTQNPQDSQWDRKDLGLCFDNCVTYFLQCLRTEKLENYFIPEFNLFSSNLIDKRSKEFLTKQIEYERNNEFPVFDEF
# Target: ANP receptor NPR-A (human (endogenous in HT-29)) (UniProt P16066)
# Test: co-IP; HT-29 cell lysates incubated with anti-NPR-A antibody at 4°C overnight, Protein A/G agarose resin, western blotting for NPR-A, cGAS and GAPDH; cells treated with DMXAA and/or ANP for 24 h beforehand
substance,measurement,value
cyclic GMP-AMP synthase (cGAS) (from UniProt Q8N884 1-522),binding,binds
